Measurements published in patent US20040132160A1 (University of Texas, published 2004).
No constants are given. Whether binding was seen depends on the method and setting. In cells and extracts the contact can be indirect. Some results given as binding are weak or reduced against the parent protein; the word gives no strength. Sequences can lack the tags named with a protein.

T1: full-length MURF-1 with C-terminal myc tag (murine) (UniProt Q9ERP3)
T1 sequence: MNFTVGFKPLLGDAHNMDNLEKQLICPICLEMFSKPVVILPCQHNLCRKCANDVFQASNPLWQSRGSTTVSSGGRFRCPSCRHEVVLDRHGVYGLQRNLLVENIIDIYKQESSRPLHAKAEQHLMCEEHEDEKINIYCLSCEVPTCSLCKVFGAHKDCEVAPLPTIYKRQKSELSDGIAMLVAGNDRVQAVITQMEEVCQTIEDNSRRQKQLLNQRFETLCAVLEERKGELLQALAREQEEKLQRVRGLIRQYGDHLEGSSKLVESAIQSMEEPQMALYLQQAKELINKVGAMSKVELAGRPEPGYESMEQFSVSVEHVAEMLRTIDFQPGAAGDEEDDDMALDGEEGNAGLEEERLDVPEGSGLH


Target: T1, full-length MURF-1 with C-terminal myc tag (murine)
Assay: co-immunoprecipitation of 35S-labeled in vitro translated proteins with Flag antibody M2

Binder	binding
MURF-1 deletion mutant N81 with N-terminal Flag tag (protein, not shown: small tags and cut ends) RHEVVLDRHGVYGLQRNLLVENIIDIYKQESSRPLHAKAEQHLMCEEHEDEKINIYCLSCEVPTCSLCKVFGAHKDCEVAPLPTIYKRQKSELSDGIAMLVAGNDRVQAVITQMEEVCQTIEDNSRRQKQLLNQRFETLCAVLEERKGELLQALAREQEEKLQRVRGLIRQYGDHLEGSSKLVESAIQSMEEPQMALYLQQAKELINKVGAMSKVELAGRPEPGYESMEQFSVSVEHVAEMLRTIDFQPGAAGDEEDDDMALDGEEGNAGLEEERLDVPEGSGLH	binds
MURF-1 deletion mutant N167 with N-terminal Flag tag (protein, not shown: small tags and cut ends) KRQKSELSDGIAMLVAGNDRVQAVITQMEEVCQTIEDNSRRQKQLLNQRFETLCAVLEERKGELLQALAREQEEKLQRVRGLIRQYGDHLEGSSKLVESAIQSMEEPQMALYLQQAKELINKVGAMSKVELAGRPEPGYESMEQFSVSVEHVAEMLRTIDFQPGAAGDEEDDDMALDGEEGNAGLEEERLDVPEGSGLH	binds
